No constants are given. Whether binding was seen depends on the method and setting. Binding seen in cells or lysates may run through a third protein. Where a sequence is shown, tags or fusion partners need not be part of it.

The values below come from doi:10.1101/2021.05.26.444586.

This assay has as its target T1, MIM-FLAG (Mus musculus) (UniProt Q8R1S4).
T1 sequence: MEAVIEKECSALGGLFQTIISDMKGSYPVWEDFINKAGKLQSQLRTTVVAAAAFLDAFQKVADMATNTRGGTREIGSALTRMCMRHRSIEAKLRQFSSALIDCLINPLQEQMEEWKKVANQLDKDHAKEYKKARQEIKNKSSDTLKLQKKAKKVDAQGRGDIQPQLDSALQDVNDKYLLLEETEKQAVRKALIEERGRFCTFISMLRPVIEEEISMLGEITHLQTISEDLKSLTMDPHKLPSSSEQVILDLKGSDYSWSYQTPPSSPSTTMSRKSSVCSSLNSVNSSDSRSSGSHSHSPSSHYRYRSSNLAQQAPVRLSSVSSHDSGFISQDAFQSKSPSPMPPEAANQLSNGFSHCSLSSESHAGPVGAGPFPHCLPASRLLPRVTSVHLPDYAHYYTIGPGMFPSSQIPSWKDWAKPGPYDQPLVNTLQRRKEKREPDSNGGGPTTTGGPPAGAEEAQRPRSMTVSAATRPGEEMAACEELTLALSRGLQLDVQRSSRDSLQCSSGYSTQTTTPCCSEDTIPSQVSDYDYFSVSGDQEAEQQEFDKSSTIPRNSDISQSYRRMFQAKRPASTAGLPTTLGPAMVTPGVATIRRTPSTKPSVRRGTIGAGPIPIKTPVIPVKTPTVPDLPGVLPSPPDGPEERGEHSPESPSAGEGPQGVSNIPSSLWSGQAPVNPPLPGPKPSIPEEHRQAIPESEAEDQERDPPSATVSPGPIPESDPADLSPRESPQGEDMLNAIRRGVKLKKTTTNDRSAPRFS
Description: co-IP.

On to “EVL ΔEVH1 mutant (tagged, overexpressed) (Mus musculus) (domain or fragment)”, for which the binding entry is reported as “no binding”.
